In patent publication US12459974B2, “Bicyclic peptide ligands specific for Nectin-4” (priority 2018, dated 2025):
The source gives many values for each of these; only a part stands here. *1 amine or outer side, *2 acyl side, *3 side chain or, on linkers, in order; H or OH if unused. Where a SMILES comes first, the peptide text is derived from it. Bridges are numbered along the chain shown (N, C = ends). Roman numbers before positions name the chains, in order. [ ]: non-standard residue; d: D form. The star is where a group is joined. ξ: configuration not given here. TATA = O=C(CC[*:1])N1CN(C(=O)CC[*:2])CN(C(=O)CC[*:3])C1; Dolaproine = CO[C@@H]([C@@H]1CCCN1)[C@@H](C)C(=O)O; X1 = CC[C@H](C)C(C(CC(=O)[*:2])OC)N(C)[*:1]; 1Nal = N[C@@H](Cc1cccc2ccccc12)C(=O)O; X3 = O=C(CCCC(=O)[*:2])NCCC(=O)[*:1]; PABC = O=C(OCc1ccc(N[*:1])cc1)[*:2]; Hyp = O=C(O)[C@@H]1C[C@@H](O)CN1; hArg = N=C(N)NCCCC[C@H](N)C(=O)O; Cit = NC(=O)NCCC[C@H](N)C(=O)O; X2 = CC(N*)[C@@H](O)c1ccccc1; ξNMeV = CNC(C(=O)O)C(C)C; ξV = CC(C)C(N)C(=O)O; Sar = CNCC(=O)O

How the values were obtained:
MDA-MB-468 xenograft [1] = assay: Example 9.4: in vivo efficacy in MDA-MB-468 xenograft in Balb/c nude mice; conditions: iv, day 21, mean ± SEM
MDA-MB-468 xenograft [2] = assay: Example 9.9: in vivo efficacy of BCY8245 alone or with BCY8234 in MDA-MB-468 xenograft (large tumors) in Balb/c nude mice; parameters: species or system Mus Musculus
MDA-MB-468 xenograft [3] = assay: Example 9.8: in vivo efficacy of BCY8245, BCY8781 and BCY8245 with BCY8234 in MDA-MB-468 xenograft in Balb/c nude mice; parameters: species or system Mus Musculus; conditions: qw

Q: Which “Tumor volume” value (MDA-MB-468 xenograft [1]; 3 mpk, biw) does the source give for `CC[C@H](C)C(C(CC(=O)N1CCC[C@H]1[C@H](OC)[C@@H](C)C(=O)NC(C)[C@@H](O)c1ccccc1)OC)N(C)C(=O)[C@@H](NC(=O)C(C(C)C)N(C)C(=O)OCc1ccc(NC(=O)[C@H](CCCNC(N)=O)NC(=O)C(NC(=O)CCCC(=O)NCCC(=O)N(C)CC(=O)N(C)CC(=O)N(C)CC(=O)N(C)CC(=O)N(C)CC(=O)N(C)CC(=O)N(C)CC(=O)N(C)CC(=O)N(C)CC(=O)N(C)CC(=O)N[C@H]2CSCCC(=O)N3CN4CN(C3)C(=O)CCSC[C@H](NC(=O)[C@@H](CC(=O)O)NC(=O)[C@H](Cc3cccc5ccccc35)NC(=O)[C@@H]3CCCN3C2=O)C(=O)N[C@@H](CCSC)C(=O)N[C@@H](CCCCNC(=N)N)C(=O)N[C@@H](CC(=O)O)C(=O)N[C@@H](Cc2c[nH]c3ccccc23)C(=O)N[C@@H](CO)C(=O)N[C@@H]([C@@H](C)O)C(=O)N2CCC[C@H]2C(=O)N2C[C@H](O)C[C@H]2C(=O)N[C@@H](Cc2c[nH]c3ccccc23)C(=O)N[C@H](C(N)=O)CSCCC4=O)C(C)C)cc1)C(C)C` (stereo partly drawn) [BCY8245, MMAE-PABC-Cit-Val-Glutaryl-BCY8234] (I: [Sar][Sar][Sar][Sar][Sar][Sar][Sar][Sar][Sar][Sar]CP[1Nal][dD]CM[hArg]DWSTP[Hyp]WC-NH2 / II: [ξV][Cit][PABC][ξNMeV]V[X1][Dolaproine]-X2; linker I:11-I:15-I:25 via TATA; linker I:N-II:N via X3) here?
A: 22 ± 4 mm^3

Q: And the “Tumor volume” value (MDA-MB-468 xenograft [1]; 3 mpk, qw)?
A: 85 ± 31 mm^3

Q: And the “Tumor volume” value (MDA-MB-468 xenograft [1]; 5 mpk, qw)?
A: 29 ± 3 mm^3

Q: What about the “Tumor volume” value (MDA-MB-468 xenograft [2]; 1 mpk, qw, day 28, Mean ± SEM) of the same compound?
A: 384 ± 41 mm^3

Q: What about the “Tumor volume” value (MDA-MB-468 xenograft [2]; 3 mpk, qw, day 28, Mean ± SEM) of the same compound?
A: 50 ± 17 mm^3

Q: And the Tumor volume (MDA-MB-468 xenograft [2]; Gr. 3, 3 mpk, qw, day 79)?
A: 221 mm^3

Q: What about the Tumor volume (MDA-MB-468 xenograft [2]; Gr. 3, 3 mpk, qw, day 82) of the same compound?
A: 198 mm^3

Q: What about the Tumor volume (MDA-MB-468 xenograft [2]; Gr. 3, 3 mpk, qw, day 86) of the same compound?
A: 185 mm^3

Q: And the Tumor volume (MDA-MB-468 xenograft [2]; Gr. 3, 3 mpk, qw, day 89)?
A: 180 mm^3

Q: What about the Tumor volume (MDA-MB-468 xenograft [2]; Gr. 3, 3 mpk, qw, day 93) of the same compound?
A: 155 mm^3

Q: What about the Tumor volume (MDA-MB-468 xenograft [2]; Gr. 3, 3 mpk, qw, day 96) of the same compound?
A: 166 mm^3

Q: What about the Tumor volume (MDA-MB-468 xenograft [2]; Gr. 3, 3 mpk, qw, day 100) of the same compound?
A: 221 mm^3

Q: And the Tumor volume (MDA-MB-468 xenograft [2]; Gr. 3, 3 mpk, qw, day 103)?
A: 250 mm^3

Q: What about the Tumor volume (MDA-MB-468 xenograft [2]; Group1, Vehicle, dosed with 5 mpk BCY8245 on PG-D28, day 65) of the same compound?
A: 316 ± 212 mm^3

Q: And the Tumor volume (MDA-MB-468 xenograft [2]; Group1, Vehicle, dosed with 5 mpk BCY8245 on PG-D28, day 68)?
A: 347 ± 215 mm^3

Q: What about the Tumor volume (MDA-MB-468 xenograft [2]; Group1, Vehicle, dosed with 5 mpk BCY8245 on PG-D28, day 72) of the same compound?
A: 368 ± 242 mm^3

Q: What about the Tumor volume (MDA-MB-468 xenograft [2]; Group1, Vehicle, dosed with 5 mpk BCY8245 on PG-D28, day 75) of the same compound?
A: 385 ± 245 mm^3

Q: What about the Tumor volume (MDA-MB-468 xenograft [2]; Group 2, 1 mpk, change in 5 mpk on PG-D28, day 62) of the same compound?
A: 145 ± 29 mm^3

Q: And the Tumor volume (MDA-MB-468 xenograft [2]; Group 2, 1 mpk, change in 5 mpk on PG-D28, day 65)?
A: 163 ± 31 mm^3

Q: And the Tumor volume (MDA-MB-468 xenograft [2]; Group 2, 1 mpk, change in 5 mpk on PG-D28, day 68)?
A: 173 ± 32 mm^3

Q: And the Tumor volume (MDA-MB-468 xenograft [2]; Group 2, 1 mpk, change in 5 mpk on PG-D28, day 72)?
A: 180 ± 36 mm^3

Q: What about the Tumor volume (MDA-MB-468 xenograft [2]; Group 2, 1 mpk, change in 5 mpk on PG-D28, day 75) of the same compound?
A: 196 ± 40 mm^3

Q: And the Tumor volume (MDA-MB-468 xenograft [2]; Group3, 3 mpk, qw, day 62)?
A: 146 ± 70 mm^3

Q: What about the Tumor volume (MDA-MB-468 xenograft [2]; Group3, 3 mpk, qw, day 65) of the same compound?
A: 147 ± 74 mm^3

Q: What about the Tumor volume (MDA-MB-468 xenograft [2]; Group3, 3 mpk, qw, day 68) of the same compound?
A: 155 ± 81 mm^3

Q: And the Tumor volume (MDA-MB-468 xenograft [2]; Group3, 3 mpk, qw, day 72)?
A: 170 ± 89 mm^3

Q: And the Tumor volume (MDA-MB-468 xenograft [2]; Group3, 3 mpk, qw, day 75)?
A: 223 ± 115 mm^3

Q: What about the Tumor volume (MDA-MB-468 xenograft [3]; 0.3 mpk, i.v., day 0 after the start of treatment) of the same compound?
A: 188 mm^3

Q: What about the Tumor volume (MDA-MB-468 xenograft [3]; 0.3 mpk, i.v., day 2) of the same compound?
A: 189 mm^3

Q: And the Tumor volume (MDA-MB-468 xenograft [3]; 0.3 mpk, i.v., day 4)?
A: 211 mm^3

Q: And the Tumor volume (MDA-MB-468 xenograft [3]; 0.3 mpk, i.v., day 7)?
A: 235 mm^3

Q: What about the Tumor volume (MDA-MB-468 xenograft [3]; 0.3 mpk, i.v., day 9) of the same compound?
A: 252 mm^3

Q: What about the Tumor volume (MDA-MB-468 xenograft [3]; 0.3 mpk, i.v., day 11) of the same compound?
A: 253 mm^3

Q: And the Tumor volume (MDA-MB-468 xenograft [3]; 0.3 mpk, i.v., day 14)?
A: 275 mm^3

Q: And the Tumor volume (MDA-MB-468 xenograft [3]; 0.3 mpk, i.v., day 16)?
A: 277 mm^3

Q: And the Tumor volume (MDA-MB-468 xenograft [3]; 0.3 mpk, i.v., day 18)?
A: 295 mm^3

Q: And the Tumor volume (MDA-MB-468 xenograft [3]; 0.3 mpk, i.v., day 21)?
A: 300 mm^3

Q: And the “Tumor volume” value (MDA-MB-468 xenograft [3]; 0.3 mpk, Mean ± SEM)?
A: 300 ± 27 mm^3

Q: What about the Tumor volume (MDA-MB-468 xenograft [3]; 0.3 mpk, day 23) of the same compound?
A: 284 ± 14 mm^3

Q: And the Tumor volume (MDA-MB-468 xenograft [3]; 0.3 mpk, day 25)?
A: 268 ± 10 mm^3

Q: What about the Tumor volume (MDA-MB-468 xenograft [3]; 0.3 mpk, day 28) of the same compound?
A: 254 ± 15 mm^3

Q: What about the Tumor volume (MDA-MB-468 xenograft [3]; 0.3 mpk, day 30) of the same compound?
A: 240 ± 21 mm^3

Q: And the Tumor volume (MDA-MB-468 xenograft [3]; 0.3 mpk, day 32)?
A: 241 ± 32 mm^3

Q: What about the Tumor volume (MDA-MB-468 xenograft [3]; 0.3 mpk, day 35) of the same compound?
A: 237 ± 33 mm^3

Q: And the Tumor volume (MDA-MB-468 xenograft [3]; 0.3 mpk, day 37)?
A: 246 ± 40 mm^3

Q: And the Tumor volume (MDA-MB-468 xenograft [3]; 0.3 mpk, day 39)?
A: 248 ± 37 mm^3

Q: What about the Tumor volume (MDA-MB-468 xenograft [3]; 0.3 mpk, day 42) of the same compound?
A: 245 ± 48 mm^3

Q: What about the Tumor volume (MDA-MB-468 xenograft [3]; 0.3 mpk, day 44) of the same compound?
A: 251 ± 48 mm^3

Q: What about the Tumor volume (MDA-MB-468 xenograft [3]; 0.3 mpk, day 46) of the same compound?
A: 248 ± 61 mm^3

Q: And the Tumor volume (MDA-MB-468 xenograft [3]; 0.3 mpk, day 49)?
A: 250 ± 65 mm^3

Q: What about the Tumor volume (MDA-MB-468 xenograft [3]; 0.3 mpk, day 51) of the same compound?
A: 264 ± 68 mm^3

Q: What about the Tumor volume (MDA-MB-468 xenograft [3]; 0.3 mpk, day 53) of the same compound?
A: 268 ± 81 mm^3

Q: And the Tumor volume (MDA-MB-468 xenograft [3]; 0.3 mpk, day 56)?
A: 271 ± 87 mm^3

Q: What about the Tumor volume (MDA-MB-468 xenograft [3]; 0.3 mpk, day 58) of the same compound?
A: 267 ± 95 mm^3

Q: What about the Tumor volume (MDA-MB-468 xenograft [3]; 0.3 mpk, day 60) of the same compound?
A: 270 ± 108 mm^3

Q: What about the Tumor volume (MDA-MB-468 xenograft [3]; 0.3 mpk, day 64) of the same compound?
A: 276 ± 132 mm^3

Q: What about the Tumor volume (MDA-MB-468 xenograft [3]; 0.3 mpk, day 67) of the same compound?
A: 269 ± 137 mm^3

Q: And the Tumor volume (MDA-MB-468 xenograft [3]; 0.3 mpk, day 71)?
A: 280 ± 155 mm^3

Q: And the Tumor volume (MDA-MB-468 xenograft [3]; 0.3 mpk, day 74)?
A: 295 ± 167 mm^3

Q: What about the Tumor volume (MDA-MB-468 xenograft [3]; 0.3 mpk, day 78) of the same compound?
A: 313 ± 194 mm^3

Q: What about the Tumor volume (MDA-MB-468 xenograft [3]; 0.3 mpk, day 81) of the same compound?
A: 291 ± 192 mm^3

Q: And the Tumor volume (MDA-MB-468 xenograft [3]; 0.3 mpk, day 84)?
A: 301 ± 194 mm^3

Q: And the Tumor volume (MDA-MB-468 xenograft [3]; 0.3 mpk, day 88)?
A: 277 ± 194 mm^3

Q: What about the Tumor volume (MDA-MB-468 xenograft [3]; 0.3 mpk, day 91) of the same compound?
A: 293 ± 209 mm^3

Q: And the Tumor volume (MDA-MB-468 xenograft [3]; 1 mpk, i.v., day 0 after the start of treatment)?
A: 185 mm^3

Q: What about the Tumor volume (MDA-MB-468 xenograft [3]; 1 mpk, i.v., day 2) of the same compound?
A: 187 mm^3

Q: And the Tumor volume (MDA-MB-468 xenograft [3]; 1 mpk, i.v., day 4)?
A: 183 mm^3

Q: What about the Tumor volume (MDA-MB-468 xenograft [3]; 1 mpk, i.v., day 7) of the same compound?
A: 190 mm^3

Q: And the Tumor volume (MDA-MB-468 xenograft [3]; 1 mpk, i.v., day 9)?
A: 205 mm^3

Q: And the Tumor volume (MDA-MB-468 xenograft [3]; 1 mpk, i.v., day 11)?
A: 195 mm^3

Q: And the Tumor volume (MDA-MB-468 xenograft [3]; 1 mpk, i.v., day 14)?
A: 201 mm^3

Q: What about the Tumor volume (MDA-MB-468 xenograft [3]; 1 mpk, i.v., day 16) of the same compound?
A: 197 mm^3

Q: What about the Tumor volume (MDA-MB-468 xenograft [3]; 1 mpk, i.v., day 18) of the same compound?
A: 218 mm^3

Q: And the Tumor volume (MDA-MB-468 xenograft [3]; 1 mpk, i.v., day 21)?
A: 204 mm^3

Q: What about the “Tumor volume” value (MDA-MB-468 xenograft [3]; 1 mpk, Mean ± SEM) of the same compound?
A: 204 ± 19 mm^3

Q: What about the Tumor volume (MDA-MB-468 xenograft [3]; 1 mpk, day 23) of the same compound?
A: 200 ± 16 mm^3

Q: And the Tumor volume (MDA-MB-468 xenograft [3]; 1 mpk, day 25)?
A: 199 ± 13 mm^3

Q: And the Tumor volume (MDA-MB-468 xenograft [3]; 1 mpk, day 28)?
A: 210 ± 6 mm^3

Q: And the Tumor volume (MDA-MB-468 xenograft [3]; 1 mpk, day 30)?
A: 221 ± 14 mm^3
